Data as given in PubChem BioAssay AID651768 (National Center for Advancing Translational Sciences (NCATS), 2012).
Among all 360,000 compounds or so, about 1,700 (0.47%) were called active. Inconclusive results, whose numbers are uncertain, are shown with a selection of clear calls. Calls follow the shape of the dose curve; as a rule, active = well fitted inhibition curve with a large enough effect; inconclusive = small, poorly fitted or top-dose-only effect; inactive = no such curve, though single readings can be large or run the other way. Potencies beside an inconclusive call are fits to weak or partial responses and may not hold up.

Protein sequences, listed by entry. Tags and fused reporters are not part of them.
UniProt Q14191, whole entry, looked up: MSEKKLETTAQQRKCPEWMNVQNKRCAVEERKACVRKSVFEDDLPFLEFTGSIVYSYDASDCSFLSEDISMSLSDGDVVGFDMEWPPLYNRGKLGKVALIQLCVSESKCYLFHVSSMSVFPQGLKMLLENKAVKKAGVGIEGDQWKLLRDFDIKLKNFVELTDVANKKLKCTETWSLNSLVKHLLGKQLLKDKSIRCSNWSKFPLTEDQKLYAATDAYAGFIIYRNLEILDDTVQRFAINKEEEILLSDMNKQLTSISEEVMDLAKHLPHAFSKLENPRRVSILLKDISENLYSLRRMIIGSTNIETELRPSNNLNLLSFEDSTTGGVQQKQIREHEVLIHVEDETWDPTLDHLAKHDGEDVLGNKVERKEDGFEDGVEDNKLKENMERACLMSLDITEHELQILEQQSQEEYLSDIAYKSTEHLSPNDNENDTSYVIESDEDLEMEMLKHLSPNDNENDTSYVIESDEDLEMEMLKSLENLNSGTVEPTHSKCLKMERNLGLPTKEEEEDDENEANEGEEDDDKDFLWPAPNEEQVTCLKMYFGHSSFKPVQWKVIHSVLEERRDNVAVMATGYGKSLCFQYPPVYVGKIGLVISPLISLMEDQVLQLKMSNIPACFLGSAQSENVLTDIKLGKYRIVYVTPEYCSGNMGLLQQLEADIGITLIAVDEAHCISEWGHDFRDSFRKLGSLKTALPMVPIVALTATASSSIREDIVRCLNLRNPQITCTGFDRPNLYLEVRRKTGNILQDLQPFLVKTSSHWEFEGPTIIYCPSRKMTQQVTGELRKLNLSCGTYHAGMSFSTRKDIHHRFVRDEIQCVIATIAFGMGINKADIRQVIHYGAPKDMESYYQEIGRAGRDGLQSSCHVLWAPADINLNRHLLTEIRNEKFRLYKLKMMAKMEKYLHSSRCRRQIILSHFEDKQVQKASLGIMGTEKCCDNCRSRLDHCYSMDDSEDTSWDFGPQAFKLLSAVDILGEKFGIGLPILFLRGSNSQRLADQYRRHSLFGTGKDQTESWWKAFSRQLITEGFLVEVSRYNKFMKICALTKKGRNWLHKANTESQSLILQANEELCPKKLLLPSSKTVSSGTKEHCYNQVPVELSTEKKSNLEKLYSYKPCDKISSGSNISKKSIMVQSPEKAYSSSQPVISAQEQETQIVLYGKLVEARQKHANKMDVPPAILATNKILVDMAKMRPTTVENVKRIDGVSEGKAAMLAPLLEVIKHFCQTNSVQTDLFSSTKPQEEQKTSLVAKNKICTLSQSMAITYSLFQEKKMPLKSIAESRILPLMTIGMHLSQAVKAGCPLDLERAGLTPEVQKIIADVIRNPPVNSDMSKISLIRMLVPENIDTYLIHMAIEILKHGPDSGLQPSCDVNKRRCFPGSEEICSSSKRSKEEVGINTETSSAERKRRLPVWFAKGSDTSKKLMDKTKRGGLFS

molecular target: Bifunctional 3'-5' exonuclease/ATP-dependent helicase WRN (Homo sapiens) (UniProt Q14191); assay: qHTS for Inhibitors of WRN Helicase; settings: WRN helicase unwinding, fluorescent forked duplex, kinetic; activity change, negative = inhibition: at 114 µM (top of the series) unless noted; also: nearly all actives have a fitted effect of over 55% in size
In short: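 Screening of the MLSMR collection measured strand separation of a quenched forked DNA duplex (100 nM) by 20 nM WRN with 2 mM ATP, all final. Compounds were preincubated with enzyme 15 min at room temperature.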
% is scaled to controls: 0 for no effect and ±100 for the full control effect; potency is read from the fitted curve at half-maximal effect.

Row | Structure (SMILES) | Potency | activity change, negative = inhibition
1 | COc1cc(C(=S)NCc2ccccc2)cc(Br)c1O | inconclusive: 31.6 µM [inhibitor, partial curve] | 
2 | CCN(CC)CCCNC(=O)c1cc2c(-c3ccc(Cl)cc3)nn(C)c2s1 |  | inactive: 93.3%
3 | Cn1c(Sc2ccc(C(=O)O)cc2[N+](=O)[O-])nnc1-c1ccccc1 | inconclusive: 89.1 µM [inhibitor, single point] | 
4 | CC(=O)Nc1cccc(/C(C)=N/Nc2ccc(S(=O)(=O)Nc3ccccc3C(=O)O)cc2[N+](=O)[O-])c1 | inconclusive: 39.8 µM [inhibitor, partial curve] | 
5 | CC(CN1CCN(c2ccccc2)CC1)c1ccccc1 (centres undefined) |  | inactive: -2.67% [at 11.6 µM]
6 | ON=Cc1ccnc2ccccc12 |  | inactive: -4.54%
7 | CCNc1ccccc1CP(=O)(c1ccccc1)c1ccccc1O (centres undefined) | inconclusive: 79.4 µM [inhibitor, partial curve] | 
8 | COc1ccc(-n2cc(-c3ccc(OC)c(OC)c3)[nH]c2=S)cc1 |  | inactive: -2.58%
9 | O=c1cc(-c2ccsc2)oc2cc(-c3ccc4c(c3)OCO4)ccc12 | active: 25.1 µM | 
10 | NN=C1c2ccccc2C(=O)C1C(=O)C(c1ccccc1)c1ccccc1 (centres undefined) | active: 50.1 µM | 
11 | O=S1(=O)CCOC[C@H](c2ccccc2)N1Cc1ccccc1F | inconclusive: 79.4 µM [inhibitor, partial curve] | 
12 | CCC(=O)Nc1ccc(NC(=S)NC(=O)/C=C/c2ccccc2)cc1 | inconclusive: 79.4 µM [inhibitor, partial curve] | 
13 | S=c1[nH]nc(-c2cc(-c3ccccc3)n[nH]2)n1/N=C/C=C/c1ccco1 | inconclusive: 56.2 µM [inhibitor, partial curve] | 
14 | O=C(CCSc1ccc(Cl)cc1)N1CCN(S(=O)(=O)c2ccccc2)CC1 | inconclusive: 35.5 µM [inhibitor, single point] | 
15 | Cc1ccc(S(=O)(=O)Oc2ccc(/C=N/N=C3/NC(=O)C(CC(=O)O)S3)cc2)cc1[N+](=O)[O-] (centres undefined) | inconclusive: 89.1 µM [inhibitor, single point] | 
16 | CN1CCN(c2ncnc3scc(-c4ccccc4Cl)c23)CC1 |  | inactive: -0.741%
17 | Cc1ccc(N2NC(=O)/C(=C/c3ccc(-c4ccc(Cl)c(C(=O)O)c4)o3)C2=O)cc1 | inconclusive: 56.2 µM [inhibitor, partial curve] | 
18 | COC(=O)C1CCCCN1C(=O)c1cc(COc2cccc3cccnc23)on1 (centres undefined) | inconclusive: 44.7 µM [inhibitor, partial curve] | 
19 | Cc1c(C(=O)N2CCCCC2CCN2CCCC2=O)oc2c(F)cccc12 (centres undefined) | inconclusive: 89.1 µM [inhibitor, single point] | 
20 | CCOC(=O)c1c(NC(=S)NC(=O)c2ccc(Cn3cc(Cl)cn3)o2)sc2c1CCCCC2 |  | inactive: 6.49%
21 | CCOC(=O)C1CCN(C(=S)Nc2ccc(S(N)(=O)=O)cc2)CC1 | inconclusive: 25.1 µM [inhibitor, single point] | 
22 | CCOC(=O)c1sc(N/N=C/c2ccccc2)nc1C | inconclusive: 35.5 µM [inhibitor, partial curve] | 
23 | CCn1c(SCC(=O)Nc2sc3c(c2C(N)=O)CCC(C)C3)nnc1-c1ccco1 (centres undefined) | inconclusive: 39.8 µM [inhibitor, full curve] | 

Row | Structure (SMILES) | Potency | activity change, negative = inhibition
24 | CC1C(=O)N(Cc2cn(Cc3ccco3)nn2)CCS(=O)(=O)N1Cc1ccc(-c2cccnc2)cc1 (centres undefined) | active: 50.1 µM | 
25 | C=CC1=C(C(=O)O)N2C(=O)C(NC(=O)Cc3ccccc3)C2SC1 (centres undefined) | inconclusive: 56.2 µM [inhibitor, partial curve] | 
26 | CCN(CC)CCNS(=O)(=O)c1ccc2[nH]cc(C(=O)O)c(=O)c2c1 |  | inactive: -12% [at 11.6 µM]
27 | CC1=C(SCc2ccccc2)C(=O)c2ccccc2C1=O | inconclusive: 79.4 µM [inhibitor, partial curve] | 
28 | CCCCOc1ccc(NC(=O)CN2CCN(CC)CC2)cc1 | inconclusive: 8.91 µM [inhibitor, full curve] | 
29 | Cc1ccc(NC(=O)c2ccc3c(c2)OCCO3)cc1S(=O)(=O)Nc1cccc(Cl)c1 | inconclusive: 56.2 µM [inhibitor, partial curve] | 
30 | Cc1nnc(Sc2cc(NCCCO)c([N+](=O)[O-])c3nonc23)s1 | active: 22.4 µM | 
31 | COc1cc(N)c(Cl)cc1C(=O)OCC(=O)c1cccs1 | inconclusive: 89.1 µM [inhibitor, single point] | 
32 | O=C(O)[C@H](Cc1ccccc1)N1C(=O)c2c(Cl)c(Cl)c(Cl)c(Cl)c2C1=O | inconclusive: 79.4 µM [inhibitor, single point] | 
33 | NC(=O)c1cc2ccccc2o/c1=N\NC(=O)c1ccccc1O | inconclusive: 50.1 µM [inhibitor, partial curve] | 
34 | COc1ccc(OC)c(N/C=C/C(=O)c2ccccc2)c1 |  | inactive: -3.94%
35 | O=C(NC1CCCC1)c1cc(-c2ccccc2O)on1 | inconclusive: 100 µM [inhibitor, single point] | 
36 | CC(NC(=O)CN1c2cccc3cccc(c23)S1(=O)=O)c1ccccc1 (centres undefined) |  | inactive: -12%
37 | COc1ccc(-c2csc(NC(=O)C3=COCCO3)n2)cc1OC | inconclusive: 28.2 µM [inhibitor, full curve, poor fit] | 
38 | O=c1cc(-c2ccc([N+](=O)[O-])cc2)nc2cc(-c3ccc(F)cc3)[nH]n12 | inconclusive: 79.4 µM [inhibitor, partial curve] | 
39 | CCc1c(C(C)S(=O)(=O)c2ccccc2)[nH]c(=O)n1CC (centres undefined) | inconclusive: 50.1 µM [inhibitor, partial curve] | 
40 | CCOC(=O)c1c(C)[nH]c(C)c1S(=O)(=O)NCC1CCN(Cc2ccccc2OC)CC1 |  | inactive: 1.74%
41 | O=[N+]([O-])c1c(Nc2ccccc2O)cc(Cl)c2nonc12 | inconclusive: 2.99 µM [inhibitor, partial curve] | 
42 | CCC1Sc2ccc(S(=O)(=O)CCC(=O)Nc3cccc(Br)c3)cc2NC1=O (centres undefined) |  | inactive: -8.45%
43 | COc1ccc2ccccc2c1/C=N/NC(=O)c1ccccc1F | inconclusive: 89.1 µM [inhibitor, single point] | 
44 | CN(C)CCNc1ccc2ncn3c4ccc(O)cc4c(=O)c1c23 | inconclusive: 56.2 µM [inhibitor, partial curve] | 
45 | COc1ccc(/C=N/NC(=O)c2ccc(O)cc2O)cc1CSc1ccccn1 | inconclusive: 50.1 µM [inhibitor, partial curve] | 
46 | COc1cc(CC2COC(c3ccc(O)c(OC)c3)C2COC(C)=O)ccc1O (centres undefined) | active: 50.1 µM | 

Grouped by structure, the compounds so far with fluorine.
Row | Structure (SMILES) | Potency | activity change, negative = inhibition
11 | O=S1(=O)CCOC[C@H](c2ccccc2)N1Cc1ccccc1F | inconclusive: 79.4 µM [inhibitor, partial curve] | 
19 | Cc1c(C(=O)N2CCCCC2CCN2CCCC2=O)oc2c(F)cccc12 (centres undefined) | inconclusive: 89.1 µM [inhibitor, single point] | 
38 | O=c1cc(-c2ccc([N+](=O)[O-])cc2)nc2cc(-c3ccc(F)cc3)[nH]n12 | inconclusive: 79.4 µM [inhibitor, partial curve] | 
43 | COc1ccc2ccccc2c1/C=N/NC(=O)c1ccccc1F | inconclusive: 89.1 µM [inhibitor, single point] | 

Some values from the list:
Entry of `COc1ccc(/C=N/NC(=O)c2ccc(O)cc2O)cc1CSc1ccccn1` under Potency: inconclusive: 50.1 µM [inhibitor, partial curve]
Entry of `CCC1Sc2ccc(S(=O)(=O)CCC(=O)Nc3cccc(Br)c3)cc2NC1=O` (centres undefined) under activity change, negative = inhibition: inactive: -8.45%

Next records follow:

Row | Structure (SMILES) | Potency | activity change, negative = inhibition
47 | O=C1Nc2ccc([N+](=O)[O-])cc2C1=Nc1cccc(CO)c1 | inconclusive: 28.2 µM [inhibitor, single point] | 
48 | COc1ccc(-c2nc3ccccn3c2/N=C/c2ccc(OC)c(OC)c2)cc1O | inconclusive: 35.5 µM [inhibitor, single point] | 
49 | Cn1ccnc1SCc1cccc([N+](=O)[O-])c1 |  | inactive: -1.64%
50 | O=S(=O)(O)c1cc(Cl)cc(N=Nc2ccc(O)cc2O)c1O | active: 50.1 µM | 
51 | O=C(NCc1cc([N+](=O)[O-])ccc1O)c1cccc(NS(=O)(=O)c2ccccc2)c1 | inconclusive: 3.55 µM [inhibitor, full curve, poor fit] | 
52 | CC(C)(C)OC(=O)NCCCCC1=CC2=CC(=O)C(C)(O)C(=O)C2=CO1 (centres undefined) | inconclusive: 50.1 µM [inhibitor, partial curve] | 
53 | CC(C)CCNC(=O)c1ccc2c(c1)N(C)C(=O)c1ccccc1S2 | inconclusive: 89.1 µM [inhibitor, single point] | 
54 | CCOCCCNC(=O)C(NC(=O)c1ccc2c(c1)OCO2)c1ccccc1 (centres undefined) | inconclusive: 89.1 µM [inhibitor, single point] | 
55 | CN=c1scc(-c2cccs2)n1/N=C/c1ccc(O)c(O)c1O | inconclusive: 21.2 µM [inhibitor, partial curve] | 
56 | O=C(NN1C(=O)/C(=C/c2ccc(O)c([N+](=O)[O-])c2)SC1=S)c1ccccc1Cl | inconclusive: 12.6 µM [inhibitor, partial curve] | 
57 | CCCCOC(=O)c1ccc(NC(=O)c2ccccc2OC)cc1 | inconclusive: 12.6 µM [inhibitor, partial curve] | 
58 | COc1ccc(CNc2ccccc2)cc1Br |  | inactive: -23.7%
59 | O=C(NC1CCCCCC1)C(=S)NCc1ccccc1 |  | inactive: -9.61%
60 | N#CC1=C(N)n2c(s/c(=C\c3cccs3)c2=O)=C(C#N)C1c1cccs1 (centres undefined) |  | inactive: -10.9% [at 11.6 µM]
61 | CCOC(=O)c1cc2c(=O)n3ccccc3nc2n(Cc2ccco2)c1=NC(=O)c1ccc(OC)cc1OC | inconclusive: 39.8 µM [inhibitor, partial curve] | 
62 | O=[N+]([O-])c1cc2c(c3cccnc13)COCO2 | inconclusive: 28.2 µM [inhibitor, full curve] | 
63 | CC(C)(C)CC(=O)Nc1cc2c3c(c1)CCN3C(=O)CC2 |  | inactive: -0.485%
64 | CCOC(=O)c1cnn(-c2nc(SC)nc3sc4c(c23)CCC4)c1N |  | inactive: -7.58%
65 | Cc1ccc(NC(=O)C(NC2CCCc3ccccc32)c2ccccc2)cc1Cl (centres undefined) | inconclusive: 17.8 µM [inhibitor, full curve] | 
66 | O=C1CCC/C1=C\Nc1ccc(Cl)c([N+](=O)[O-])c1 | inconclusive: 39.8 µM [inhibitor, single point] | 
67 | COc1ccc(NC2CCCN(C(=O)CSc3ccccc3)C2)cc1OC (centres undefined) | inconclusive: 79.4 µM [inhibitor, single point] | 
68 | CCOC(=O)c1sc(NC(=O)C(C)C)c(C#N)c1C | inconclusive: 79.4 µM [inhibitor, single point] | 
69 | O=c1[nH]c(=S)[nH]c2c1C(c1ccc(Br)cc1)c1c([nH]c(=S)[nH]c1=O)O2 | active: 14.1 µM | 
